Results from PubChem BioAssay AID1671190 (National Center for Advancing Translational Sciences (NCATS), 2021).
Several values for one entry are separate records, joined by “and”; a condition that tells them apart may be missing. Identical values can stand only once. The whole screen tested about 580,000 compounds, of which about 6,100 (1.1%) were called active. The inconclusive results got no clear call from the source; some entries with a clear call stand among them for comparison. The call rests on the fitted dose curve; in most records, active means well fitted inhibition curve with a large enough effect; inconclusive means small, poorly fitted or top-dose-only effect, or another doubt; inactive means no such curve, though single readings can be large or run the other way. A potency beside an inconclusive call is a rough fit, not a confirmed value.

The chains behind the UniProt entries cited, without tags or fusion partners.
UniProt P18054, whole entry, looked up: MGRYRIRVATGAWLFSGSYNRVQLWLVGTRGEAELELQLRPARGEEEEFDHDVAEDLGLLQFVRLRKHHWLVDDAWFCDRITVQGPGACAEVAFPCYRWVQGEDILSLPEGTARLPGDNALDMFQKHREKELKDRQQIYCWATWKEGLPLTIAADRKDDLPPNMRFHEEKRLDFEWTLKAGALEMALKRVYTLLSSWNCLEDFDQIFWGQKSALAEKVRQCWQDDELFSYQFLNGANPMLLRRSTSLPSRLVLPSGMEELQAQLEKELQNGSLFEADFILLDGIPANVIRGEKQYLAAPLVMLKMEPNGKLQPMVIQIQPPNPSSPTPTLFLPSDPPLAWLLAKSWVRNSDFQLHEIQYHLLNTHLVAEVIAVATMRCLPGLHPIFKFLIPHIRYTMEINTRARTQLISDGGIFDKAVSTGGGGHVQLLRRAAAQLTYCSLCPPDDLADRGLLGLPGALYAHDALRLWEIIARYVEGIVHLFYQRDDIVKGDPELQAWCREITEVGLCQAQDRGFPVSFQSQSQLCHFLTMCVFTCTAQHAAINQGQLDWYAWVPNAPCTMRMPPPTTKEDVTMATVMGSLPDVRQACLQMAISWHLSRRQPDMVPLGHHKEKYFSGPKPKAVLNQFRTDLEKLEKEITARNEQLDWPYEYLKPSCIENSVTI

Each molecule was assayed against Polyunsaturated fatty acid lipoxygenase ALOX12 (Homo sapiens) (UniProt P18054) (assay: Primary qHTS assay for inhibitors of human arachidonate 12S-lipoxygenase (ALOX12): Round 2). Conditions: purified 12hLO, xylenol orange hydroperoxide absorbance; activity change, negative = inhibition: at 108 µM (top of the series) unless noted.
Method in brief: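 Purified human 12hLO at 150 nM in 25 mM Hepes, 0.01% Triton X-100, pH 7.0, preincubated 15 min at room temperature with compound. Reaction started with 40 uM arachidonic acid, 30 min at room temperature. Hydroperoxide measured by Fe-xylenol orange, 573/405 nm absorbance ratio.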
On the % scale 0 is the no-effect control and ±100 the full control effect; potency means the concentration at half of the fitted maximal effect.

Compound	Potency	activity change, negative = inhibition
Cc1c(C(C)C)c(=O)n(-c2ccccc2)n1C	inactive	
Cc1oc2ccc(O)c(CN3CCCCCC3)c2c1C(=O)Nc1cccc(C(F)(F)F)c1	inconclusive: 89.1 µM [inhibitor, partial curve, poor fit]	
CN(Cc1ccccc1)C(=O)COC(=O)c1ccccc1-c1nc2ccccc2s1	inconclusive: 158 µM [inhibitor, partial curve, poor fit]	
O=[N+]([O-])c1ccc(N/N=C2\CC3CC=CC23)c([N+](=O)[O-])c1 (centres undefined)		inactive: -12.4%
CCCN(CC(=O)Nc1ccccc1OC)C(=O)c1ccc2[nH]c3c(c2c1)CC(C)CC3 (centres undefined)	inconclusive: 100 µM [inhibitor, single point]	
O=C(NCc1cccnc1)c1ccc(-c2ccccc2[N+](=O)[O-])o1		inactive: 12.5%
Cc1nnc(N2C(=O)C(O)=C(C(=O)c3cccs3)C2c2ccc(C(C)(C)C)cc2)s1 (centres undefined)	inconclusive: 1.12 µM [inhibitor, full curve, poor fit]	
CC(C)Nc1ncnc2c1cnn2-c1ccccc1		inactive: -0.303%
O=C(O)c1ccc(CNC2C3CC4CC(C3)CC2C4)cc1 (centres undefined)	inconclusive: 44.7 µM [inhibitor, partial curve, poor fit]	
Cc1cn2nc(C(=O)NCc3cccnc3)cc2c(=O)[nH]1		inactive: 22.3%
CCn1c(C)c(C)c2cc(C(=O)NCCN3CCCCCC3)ccc21	inconclusive: 28.2 µM [inhibitor, partial curve, poor fit]	
CCCCC(=O)N(C)Cc1ccc(OC)cc1		inactive: 2.56%
N#CC1(Cc2ccccc2)c2ccccc2C=CN1C(=O)c1ccccc1 (centres undefined)		inactive: -4.04%
CC(=O)NCCNC(=O)CN(CC1CCOC1)C1CC1 (centres undefined)		inactive: -4.65%
CN(C)c1ncc(C2=C(Cl)C(=O)C(N3CCCC3)=C(Cl)C2=O)s1	inconclusive: 7.94 µM [inhibitor, full curve, poor fit]	
Cc1ccc(NC(=O)C2CCN(S(=O)(=O)c3ccc4c(c3)CCCC(=O)N4)CC2)cc1N(C)C	inactive	
CC(NC(=O)c1ccc(Cn2ccn3nc4c(c3c2=O)CCCC4)cc1)c1ccccc1 (centres undefined)	inconclusive: 15.8 µM [inhibitor, full curve]	
Cc1cc(SCC2CCCCO2)nc2ccccc12 (centres undefined)	inconclusive: 4.47 µM [inhibitor, full curve, poor fit]	
CCCOc1ccccc1-c1nc(SCCC(=O)O)n[nH]1	inconclusive: 35.5 µM [inhibitor, partial curve, poor fit]	
CCc1nc2ccc(C(=O)N3CCN(C(=O)c4ccco4)CC3)cn2c1N(C)C(=O)c1cccc(OC)c1	inconclusive: 3.16 µM [inhibitor, full curve, poor fit]	
CCOc1cccc(OCCOCCNC(C)(C)C)c1	inconclusive: 0.501 µM [inhibitor, full curve, poor fit]	
CC1(C(=O)NS(=O)(=O)c2cccs2)CCN1C(=O)Cc1ccccc1 (centres undefined)	inconclusive: 14.1 µM [inhibitor, full curve, poor fit]	
CNCC(=O)N1CCCC(N2CCN(c3ccc(OC)cc3)CC2)C1 (centres undefined)	inconclusive: 11.2 µM [inhibitor, full curve]	

Compound	Potency	activity change, negative = inhibition
CC(C)(C)OC(=O)N1CCC[C@H]1C(=O)OCC(=O)Nc1cc(S(C)(=O)=O)ccc1Cl	inconclusive: 39.8 µM [inhibitor, single point]	
CCOC(=O)c1cnc(SCC(=O)Nc2cc(OC)cc(OC)c2)nc1N	inconclusive: 112 µM [inhibitor, partial curve, poor fit]	
O=[N+]([O-])c1ccc(NC(=S)NCCc2ccccc2)cc1	active: 44.7 µM	
CCCC[n+]1ccc(-c2nc3ccc([N+](=O)[O-])cc3[nH]2)cc1	inconclusive: 15.8 µM [inhibitor, partial curve, poor fit]	
CCOc1cc(/C=C2\N=C(SC(C)C(N)=O)N(c3ccc(OC(F)F)cc3)C2=O)ccc1O (centres undefined)		inactive: 354%
COc1cccc(CC(=O)N2C[C@@H](Oc3ccccc3)C[C@H]2C(=O)N2CCCC2)c1		inactive: 37.6%
Cc1ccc(C(=O)Nc2nc3ccccc3n2CCN2CCCC2)cc1		inactive: 24.6%
O=c1[nH]nc(Cc2ccc(Cl)cc2Cl)c2ccccc12		inactive: 16.2%
COc1ccc(C(=O)Nc2nc(-c3ccccn3)cs2)cc1S(=O)(=O)N1CCOCC1		inactive: 16.6%
CN(C)CCCOc1cccc(Oc2ccccc2)c1	inconclusive: 2.51 µM [inhibitor, full curve]	
COc1ccc(C(=O)C(C#N)C(=O)c2ccc(C)c(OC)c2)cc1 (centres undefined)	inconclusive: 5.01 µM [inhibitor, full curve, poor fit]	
COCc1cc(=O)n2[nH]c(-c3ccsc3-n3c(C)ccc3C)cc2n1	inconclusive: 15.8 µM [inhibitor, partial curve, poor fit]	
CC(C)N(c1ccccc1)c1ccc(NC(=S)NCCN(C)C)cc1		inactive: -19.6%
CC(=O)c1ccc(NC(=O)C2(C#N)CCCC2)cc1	inconclusive: 50.1 µM [inhibitor, partial curve, poor fit]	
CCOC(=O)C1CCN(C(=O)COc2ccc(Cl)cc2C)CC1		inactive: 110%
Cc1ccc(-n2nc3c(=O)n(CCCC(=O)NCc4cccc(Cl)c4)nc(C)c3c2C)cc1		inactive: 5.94%
CN(Cc1ccc(F)cc1)C(=O)c1ccc(NC(=O)CC2SC(N3CCCC3)=NC2=O)cc1 (centres undefined)	inconclusive: 44.7 µM [inhibitor, partial curve, poor fit]	
Nc1ccc(Nc2ccccc2N)cc1	inconclusive: 50.1 µM [inhibitor, partial curve, poor fit]	
O=C(CCc1cccnc1)NCc1ccccn1		inactive: 17.1%
O=C(O)c1cccc(OCCN2CCCC2=O)c1	inconclusive: 44.7 µM [inhibitor, partial curve, poor fit]	
CC1CCCCN1c1ncnc(N)c1[N+](=O)[O-] (centres undefined)		inactive: -1.39%
O=C(O)c1ccccc1-c1c2cc(I)c(=O)c(I)c-2oc2c(I)c(O)c(I)cc12	inconclusive: 56.2 µM [inhibitor, partial curve, poor fit] and active: 35.5 µM	
CCOC(=O)C1=C(CN2CCN(c3ccc(C)cc3C)CC2)NC(=O)NC1c1ccc(OC)cc1 (centres undefined)	active: 44.7 µM	

Compound	Potency	activity change, negative = inhibition
O=C(Cc1ccccc1Cl)N1CCC2(CC1)NC(=O)N(c1ccc(F)cc1)N2	active: 2.24 µM	
CC(C)Cn1c(N)c(-c2csc(NC(C)C)n2)c(=O)n(C)c1=O	inconclusive: 0.891 µM [inhibitor, full curve, poor fit]	
O=C(CCCCCCC(=O)Nc1cccnc1)NO	inconclusive: 27.3 µM [inhibitor, partial curve, poor fit]	
CCN(CC)C(=O)CCc1c(C)nn(-c2ccccc2)c1Oc1ccc(F)cc1F	inconclusive: 44.7 µM [inhibitor, partial curve]	
O=C1CCCC2=C1C(c1ccc(Br)cc1)n1nnnc1N2 (centres undefined)	inconclusive: 79.4 µM [inhibitor, single point]	
CC(C)NC(=O)NCc1nnc2n1C(C(=O)NCCc1ccc(Cl)cc1)CC2 (centres undefined)		inactive: -0.607% [at 6.33 µM]
O=C(CCc1ncc(-c2ccccc2Cl)o1)NCc1ccc(Cl)cc1Cl		inactive: -19.7%
Cc1c(CN2CCCC(COc3ccccc3C(=O)N3CCCCC3)C2)cnn1C (centres undefined)		inactive: -3.37%
CN(CCc1ccccc1)C(=O)c1ccc(NC(=O)Cc2cccc(NC(=O)C3CCN(S(=O)(=O)c4cccc([N+](=O)[O-])c4)CC3)c2)cc1	inconclusive: 100 µM [inhibitor, single point]	
CCc1ccc(CCOc2ccc(CC3SC(=O)NC3=O)cc2)nc1 (centres undefined)	inconclusive: 18.1 µM [inhibitor, partial curve, poor fit] and inconclusive: 17.2 µM [inhibitor, single point]	
Cc1cc(NC(=O)c2ccc(N3CCCC3)c([N+](=O)[O-])c2)no1		inactive: -15.4%
CC1CCc2[nH]c3ccc(C(=O)N4CCCC(C(F)(F)F)C4)cc3c2C1 (centres undefined)		inactive: 13.1%
Cc1ccc(NC(=S)Nc2ccc(F)cc2)cc1C	inconclusive: 25.1 µM [inhibitor, partial curve, poor fit]	
COc1ccc(-c2cnc(N)nc2-c2ccc(OCc3ccccc3)cc2O)cc1	inconclusive: 70.8 µM [inhibitor, single point]	
COc1ccc(N2CCN(CC(O)COc3c(OC)cccc3OC)CC2)cc1 (centres undefined)	active: 39.8 µM and inconclusive: 39.8 µM [inhibitor, partial curve, poor fit]	
CC(=O)Nc1cccc(C(=O)/C=C/c2ccc[nH]2)c1	inconclusive: 35.5 µM [inhibitor, single point]	
Cc1nn(CC(O)Cn2c3c(c4ccccc42)CCN(C)C3=O)c(C)c1Br (centres undefined)		inactive: 0%
CCNC(=O)CSc1cc(C)c2ccccc2n1		inactive: -30.7%
O=C(Nc1ccc(Br)cc1)C1CCCN(C2=NS(=O)(=O)c3ccccc32)C1 (centres undefined)	inconclusive: 56.2 µM [inhibitor, partial curve, poor fit]	
COc1cccc(C=Nc2cc(C(C)C)c(O)cc2C)c1O	inconclusive: 50.1 µM [inhibitor, partial curve, poor fit]	
COc1ccc(CNC(=O)CC[C@H]2CNC(=O)[C@@H]3[C@@H](CCN3Cc3ccc(C(=O)O)cc3)N2C)cc1		inactive: 27.9%
Cc1nnc(N2C(=O)C(=O)/C(=C(/O)c3ccccc3)C2c2ccc(C(C)C)cc2)s1 (centres undefined)	inconclusive: 1.41 µM [inhibitor, full curve, poor fit]	
CCC/C(O)=C1\C(=O)CC(C)(C)CC1=Nc1ccccc1O		inactive: -3.26%
